From article PMC11349869
Results are given in words; binding and its absence hold for the method and conditions named. In cells and extracts the contact can be indirect. Some binding calls cover weakened binding; strength is not graded here. Where a sequence is shown, tags or fusion partners need not be part of it.

B1: CmpD with flag tag (constructs GM337, GM339) (protein, UniProt Q55108 1-278)
chain: MQTLRQQQPIVPSSPGHDPFLIVENVSKIYETPKGPYTVLDGVNLTVQEGEFICVIGHSGCGKSTLLNMVSGFNQPSHGSVRLKGKEIDRPGPDRMVVFQNYALLPWMTAYENVYLAVDCVNPQMREGEKREIVREHLAMVGLTEAAEKKITQISGGMKQRVAIARALSIRPEVLILDEPFGALDAITKEELQEELLKIWNDHRCTVLMITHDIDEALFLADRLVMMTNGPAANIGEIMTIPFPRPRDRERIMEDPQYYDLRNYALDFLYNRFAHDDE
B2: CmpB with a small epitope tag (constructs GM337, GM341) (protein, UniProt Q55106 1-278)
chain: MVTARETRRNGSRPSGLKKWRQKLDGILLPLAGILGFLIIWQIFSSSGATRLPGPLSLFTEERTRELLLYPFLDRGGLDKGLFWQTIASLTRVAQGFSIAAIIGISVGILVGLNRQLNAMLDPLFQFLRMIAPLAWVPIALVAFQQNQPAAIFVIFITAVWPILINTAEGVRQIPQDYNNVARVLRMSKSKYLMKVVLPAALPYIFTGLRIAIGLSWLAIIAAEIVMSGIVGIGFFIWDAYQQNYVSDIILAVIYIGAVGLLLDRFVAWLQRWILRNM

What was measured:
[1] = biological target: T1, CmpC with C-terminal HA-H6 tag (bait of the IMAC pull-down; constructs GM337, GM339) (Synechococcus sp. PCC7942) (UniProt Q55107); assay: pull-down; IMAC as above, but NBD-only construct GM339: CmpC-HA-H6 and CmpD expressed in E. coli without CmpB
T1 sequence: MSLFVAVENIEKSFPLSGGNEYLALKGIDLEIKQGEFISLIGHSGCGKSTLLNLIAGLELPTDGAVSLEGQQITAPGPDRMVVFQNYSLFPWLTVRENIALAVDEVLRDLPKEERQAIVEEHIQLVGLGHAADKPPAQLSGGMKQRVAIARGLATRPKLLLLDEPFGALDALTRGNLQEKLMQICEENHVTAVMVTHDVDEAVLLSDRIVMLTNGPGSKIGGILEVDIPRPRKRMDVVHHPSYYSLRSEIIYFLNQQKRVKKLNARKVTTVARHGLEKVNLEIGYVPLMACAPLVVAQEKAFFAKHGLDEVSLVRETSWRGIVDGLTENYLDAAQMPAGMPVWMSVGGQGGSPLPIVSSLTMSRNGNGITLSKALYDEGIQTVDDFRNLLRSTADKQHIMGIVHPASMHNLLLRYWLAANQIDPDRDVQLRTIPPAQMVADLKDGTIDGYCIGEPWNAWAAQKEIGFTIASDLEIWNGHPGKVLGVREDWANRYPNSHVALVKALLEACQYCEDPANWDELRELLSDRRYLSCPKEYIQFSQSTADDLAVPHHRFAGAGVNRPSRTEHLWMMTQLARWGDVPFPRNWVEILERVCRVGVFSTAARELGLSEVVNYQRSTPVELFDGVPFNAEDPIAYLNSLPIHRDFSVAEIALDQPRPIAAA

[2] = biological target: T1, CmpC with C-terminal HA-H6 tag (bait of the IMAC pull-down; constructs GM337, GM339) (Synechococcus sp. PCC7942); assay: pull-down; IMAC (Ni-charged resin, 4 °C, 1 h) of His6-tagged CmpC or CmpCD fusion from 1% DDM-solubilised lysate of E. coli co-expressing the epitope-tagged BCT1 subunits from one plasmid (GM337, GM341); washes with 1% DDM, 10 mM CaCl2, 20 mM NaHCO3, 5 mM MgCl2, 5 mM ATP, 5 mM Na3VO4, 20 mM imidazole; eluate blotted for the epitope tags

Binder	binding [1]	binding [2]
B1	binds	binds
B2	–	binds
